No constants are given. Whether binding was seen depends on the method and setting. In cells and extracts the contact can be indirect. Some binding calls cover weakened binding; strength is not graded here. Sequences can lack the tags named with a protein.
T1: PTCH2-HA (not stated (printed entry Q9Y6C5 is human PTCH2)) (UniProt Q9Y6C5)
T1 sequence: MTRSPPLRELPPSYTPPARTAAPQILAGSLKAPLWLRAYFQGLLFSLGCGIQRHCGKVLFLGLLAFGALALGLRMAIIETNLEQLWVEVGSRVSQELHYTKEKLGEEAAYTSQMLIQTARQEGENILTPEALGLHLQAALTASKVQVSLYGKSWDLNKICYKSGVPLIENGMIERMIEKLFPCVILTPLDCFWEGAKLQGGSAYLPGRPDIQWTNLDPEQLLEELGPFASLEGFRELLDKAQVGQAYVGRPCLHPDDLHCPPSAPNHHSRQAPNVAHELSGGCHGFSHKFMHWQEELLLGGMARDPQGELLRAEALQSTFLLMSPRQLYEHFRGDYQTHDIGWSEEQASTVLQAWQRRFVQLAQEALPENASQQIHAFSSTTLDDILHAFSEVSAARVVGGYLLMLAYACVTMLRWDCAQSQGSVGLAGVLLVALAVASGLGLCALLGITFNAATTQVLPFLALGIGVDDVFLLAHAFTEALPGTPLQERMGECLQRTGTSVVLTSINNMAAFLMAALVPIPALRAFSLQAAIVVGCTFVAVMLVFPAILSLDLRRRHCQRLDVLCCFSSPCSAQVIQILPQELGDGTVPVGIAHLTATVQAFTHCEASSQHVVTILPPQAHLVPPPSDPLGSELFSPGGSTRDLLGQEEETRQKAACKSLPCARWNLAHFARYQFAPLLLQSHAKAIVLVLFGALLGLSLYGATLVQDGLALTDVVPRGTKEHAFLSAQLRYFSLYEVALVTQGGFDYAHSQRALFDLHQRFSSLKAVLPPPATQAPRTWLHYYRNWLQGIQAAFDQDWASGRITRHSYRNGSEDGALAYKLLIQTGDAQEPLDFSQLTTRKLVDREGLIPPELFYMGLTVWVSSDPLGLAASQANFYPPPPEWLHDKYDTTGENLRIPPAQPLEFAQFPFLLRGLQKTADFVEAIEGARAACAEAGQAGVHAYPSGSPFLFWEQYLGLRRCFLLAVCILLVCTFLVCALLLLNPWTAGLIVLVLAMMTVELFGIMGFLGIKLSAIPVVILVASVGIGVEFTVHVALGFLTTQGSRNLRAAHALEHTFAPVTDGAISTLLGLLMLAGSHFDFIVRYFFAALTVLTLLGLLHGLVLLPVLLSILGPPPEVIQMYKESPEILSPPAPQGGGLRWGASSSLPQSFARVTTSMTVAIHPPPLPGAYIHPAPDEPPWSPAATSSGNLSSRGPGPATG

T2: GFP-tagged PTCH2 (LLW) (not stated (printed entry Q9Y6C5 is human PTCH2)) (UniProt Q9Y6C5)
T2 sequence: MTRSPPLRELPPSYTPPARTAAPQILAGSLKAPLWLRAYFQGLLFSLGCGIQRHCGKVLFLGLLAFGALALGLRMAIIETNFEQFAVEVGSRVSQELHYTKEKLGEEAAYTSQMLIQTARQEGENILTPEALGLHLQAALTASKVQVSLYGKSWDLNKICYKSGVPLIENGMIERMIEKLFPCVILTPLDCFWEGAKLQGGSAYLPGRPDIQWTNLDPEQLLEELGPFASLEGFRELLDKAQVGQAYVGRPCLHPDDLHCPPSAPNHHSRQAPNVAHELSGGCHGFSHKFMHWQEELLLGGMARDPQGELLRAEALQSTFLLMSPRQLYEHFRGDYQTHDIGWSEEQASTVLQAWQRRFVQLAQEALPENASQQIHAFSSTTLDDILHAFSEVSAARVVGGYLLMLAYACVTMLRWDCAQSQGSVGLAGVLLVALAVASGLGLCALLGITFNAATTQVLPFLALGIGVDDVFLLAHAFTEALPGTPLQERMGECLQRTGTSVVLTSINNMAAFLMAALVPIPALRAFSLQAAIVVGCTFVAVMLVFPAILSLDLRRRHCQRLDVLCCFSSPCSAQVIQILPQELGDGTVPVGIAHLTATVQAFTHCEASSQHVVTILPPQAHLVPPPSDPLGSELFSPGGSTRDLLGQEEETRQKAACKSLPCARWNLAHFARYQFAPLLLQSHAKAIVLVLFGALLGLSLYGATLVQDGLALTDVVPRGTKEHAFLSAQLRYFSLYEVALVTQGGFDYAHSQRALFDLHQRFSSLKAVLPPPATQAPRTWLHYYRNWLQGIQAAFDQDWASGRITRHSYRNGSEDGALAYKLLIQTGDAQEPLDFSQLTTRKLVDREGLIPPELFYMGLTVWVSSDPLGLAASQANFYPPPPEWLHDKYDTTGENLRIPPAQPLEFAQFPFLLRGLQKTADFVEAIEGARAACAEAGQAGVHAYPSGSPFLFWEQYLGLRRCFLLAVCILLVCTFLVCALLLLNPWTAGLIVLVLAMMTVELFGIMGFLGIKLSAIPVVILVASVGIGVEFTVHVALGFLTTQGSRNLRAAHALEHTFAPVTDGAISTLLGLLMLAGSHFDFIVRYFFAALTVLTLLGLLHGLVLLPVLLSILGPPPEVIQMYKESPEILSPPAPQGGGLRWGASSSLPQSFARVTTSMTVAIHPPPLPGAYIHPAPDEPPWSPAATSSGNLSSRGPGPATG

T3: PTCH2-eGFP (not stated (printed entry Q9Y6C5 is human PTCH2)) (UniProt Q9Y6C5)
T3 sequence: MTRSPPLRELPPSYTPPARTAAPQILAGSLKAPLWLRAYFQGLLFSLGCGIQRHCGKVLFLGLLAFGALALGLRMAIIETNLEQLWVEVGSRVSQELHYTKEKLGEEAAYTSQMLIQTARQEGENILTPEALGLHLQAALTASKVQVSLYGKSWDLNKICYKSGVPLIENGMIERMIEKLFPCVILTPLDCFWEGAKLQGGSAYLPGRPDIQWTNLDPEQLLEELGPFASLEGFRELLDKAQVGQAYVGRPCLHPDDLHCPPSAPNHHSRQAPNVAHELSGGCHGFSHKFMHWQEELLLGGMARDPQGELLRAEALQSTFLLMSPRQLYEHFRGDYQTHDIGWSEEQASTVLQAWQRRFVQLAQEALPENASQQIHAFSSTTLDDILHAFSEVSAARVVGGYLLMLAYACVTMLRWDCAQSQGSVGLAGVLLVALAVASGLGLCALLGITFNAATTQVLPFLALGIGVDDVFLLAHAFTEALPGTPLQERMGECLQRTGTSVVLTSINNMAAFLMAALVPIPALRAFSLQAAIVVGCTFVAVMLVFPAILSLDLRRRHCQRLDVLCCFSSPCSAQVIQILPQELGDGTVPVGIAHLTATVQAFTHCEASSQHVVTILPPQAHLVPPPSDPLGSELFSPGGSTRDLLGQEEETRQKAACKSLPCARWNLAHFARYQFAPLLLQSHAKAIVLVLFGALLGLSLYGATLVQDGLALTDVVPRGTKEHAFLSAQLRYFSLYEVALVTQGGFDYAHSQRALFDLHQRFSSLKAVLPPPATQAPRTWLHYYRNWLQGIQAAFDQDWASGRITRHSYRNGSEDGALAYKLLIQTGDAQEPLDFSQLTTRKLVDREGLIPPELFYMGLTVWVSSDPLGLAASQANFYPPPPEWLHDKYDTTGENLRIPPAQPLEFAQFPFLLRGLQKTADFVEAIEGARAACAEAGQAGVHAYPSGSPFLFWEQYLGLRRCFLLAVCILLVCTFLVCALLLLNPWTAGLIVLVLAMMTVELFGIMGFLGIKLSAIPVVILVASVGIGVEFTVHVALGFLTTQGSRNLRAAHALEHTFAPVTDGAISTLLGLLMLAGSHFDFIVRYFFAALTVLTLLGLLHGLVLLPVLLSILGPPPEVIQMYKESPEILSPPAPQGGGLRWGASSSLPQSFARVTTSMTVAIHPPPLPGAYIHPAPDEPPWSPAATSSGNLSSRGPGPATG


Legend:
[1] = molecular target: T1, PTCH2-HA (not stated (printed entry Q9Y6C5 is human PTCH2)); experiment: co-IP
[2] = molecular target: T2, GFP-tagged PTCH2 (LLW) (not stated (printed entry Q9Y6C5 is human PTCH2)); experiment: FRET or BRET
[3] = molecular target: T3, PTCH2-eGFP (not stated (printed entry Q9Y6C5 is human PTCH2)); experiment: FRET or BRET

binding [1] | binding [2] | binding [3] | Binder
binds |  |  | PTCH2-FLAG (receptor, UniProt Q9Y6C5 1-1203) MTRSPPLRELPPSYTPPARTAAPQILAGSLKAPLWLRAYFQGLLFSLGCGIQRHCGKVLFLGLLAFGALALGLRMAIIETNLEQLWVEVGSRVSQELHYTKEKLGEEAAYTSQMLIQTARQEGENILTPEALGLHLQAALTASKVQVSLYGKSWDLNKICYKSGVPLIENGMIERMIEKLFPCVILTPLDCFWEGAKLQGGSAYLPGRPDIQWTNLDPEQLLEELGPFASLEGFRELLDKAQVGQAYVGRPCLHPDDLHCPPSAPNHHSRQAPNVAHELSGGCHGFSHKFMHWQEELLLGGMARDPQGELLRAEALQSTFLLMSPRQLYEHFRGDYQTHDIGWSEEQASTVLQAWQRRFVQLAQEALPENASQQIHAFSSTTLDDILHAFSEVSAARVVGGYLLMLAYACVTMLRWDCAQSQGSVGLAGVLLVALAVASGLGLCALLGITFNAATTQVLPFLALGIGVDDVFLLAHAFTEALPGTPLQERMGECLQRTGTSVVLTSINNMAAFLMAALVPIPALRAFSLQAAIVVGCTFVAVMLVFPAILSLDLRRRHCQRLDVLCCFSSPCSAQVIQILPQELGDGTVPVGIAHLTATVQAFTHCEASSQHVVTILPPQAHLVPPPSDPLGSELFSPGGSTRDLLGQEEETRQKAACKSLPCARWNLAHFARYQFAPLLLQSHAKAIVLVLFGALLGLSLYGATLVQDGLALTDVVPRGTKEHAFLSAQLRYFSLYEVALVTQGGFDYAHSQRALFDLHQRFSSLKAVLPPPATQAPRTWLHYYRNWLQGIQAAFDQDWASGRITRHSYRNGSEDGALAYKLLIQTGDAQEPLDFSQLTTRKLVDREGLIPPELFYMGLTVWVSSDPLGLAASQANFYPPPPEWLHDKYDTTGENLRIPPAQPLEFAQFPFLLRGLQKTADFVEAIEGARAACAEAGQAGVHAYPSGSPFLFWEQYLGLRRCFLLAVCILLVCTFLVCALLLLNPWTAGLIVLVLAMMTVELFGIMGFLGIKLSAIPVVILVASVGIGVEFTVHVALGFLTTQGSRNLRAAHALEHTFAPVTDGAISTLLGLLMLAGSHFDFIVRYFFAALTVLTLLGLLHGLVLLPVLLSILGPPPEVIQMYKESPEILSPPAPQGGGLRWGASSSLPQSFARVTTSMTVAIHPPPLPGAYIHPAPDEPPWSPAATSSGNLSSRGPGPATG
 | binds | binds | PTCH2-LLW-mCherry (receptor, UniProt Q9Y6C5 1-1203) MTRSPPLRELPPSYTPPARTAAPQILAGSLKAPLWLRAYFQGLLFSLGCGIQRHCGKVLFLGLLAFGALALGLRMAIIETNFEQFAVEVGSRVSQELHYTKEKLGEEAAYTSQMLIQTARQEGENILTPEALGLHLQAALTASKVQVSLYGKSWDLNKICYKSGVPLIENGMIERMIEKLFPCVILTPLDCFWEGAKLQGGSAYLPGRPDIQWTNLDPEQLLEELGPFASLEGFRELLDKAQVGQAYVGRPCLHPDDLHCPPSAPNHHSRQAPNVAHELSGGCHGFSHKFMHWQEELLLGGMARDPQGELLRAEALQSTFLLMSPRQLYEHFRGDYQTHDIGWSEEQASTVLQAWQRRFVQLAQEALPENASQQIHAFSSTTLDDILHAFSEVSAARVVGGYLLMLAYACVTMLRWDCAQSQGSVGLAGVLLVALAVASGLGLCALLGITFNAATTQVLPFLALGIGVDDVFLLAHAFTEALPGTPLQERMGECLQRTGTSVVLTSINNMAAFLMAALVPIPALRAFSLQAAIVVGCTFVAVMLVFPAILSLDLRRRHCQRLDVLCCFSSPCSAQVIQILPQELGDGTVPVGIAHLTATVQAFTHCEASSQHVVTILPPQAHLVPPPSDPLGSELFSPGGSTRDLLGQEEETRQKAACKSLPCARWNLAHFARYQFAPLLLQSHAKAIVLVLFGALLGLSLYGATLVQDGLALTDVVPRGTKEHAFLSAQLRYFSLYEVALVTQGGFDYAHSQRALFDLHQRFSSLKAVLPPPATQAPRTWLHYYRNWLQGIQAAFDQDWASGRITRHSYRNGSEDGALAYKLLIQTGDAQEPLDFSQLTTRKLVDREGLIPPELFYMGLTVWVSSDPLGLAASQANFYPPPPEWLHDKYDTTGENLRIPPAQPLEFAQFPFLLRGLQKTADFVEAIEGARAACAEAGQAGVHAYPSGSPFLFWEQYLGLRRCFLLAVCILLVCTFLVCALLLLNPWTAGLIVLVLAMMTVELFGIMGFLGIKLSAIPVVILVASVGIGVEFTVHVALGFLTTQGSRNLRAAHALEHTFAPVTDGAISTLLGLLMLAGSHFDFIVRYFFAALTVLTLLGLLHGLVLLPVLLSILGPPPEVIQMYKESPEILSPPAPQGGGLRWGASSSLPQSFARVTTSMTVAIHPPPLPGAYIHPAPDEPPWSPAATSSGNLSSRGPGPATG
